In publication doi:10.1101/2023.02.11.528093:
Results are given in words; binding and its absence hold for the method and conditions named. In cells and extracts the contact can be indirect. Some entries that bind do so weakly or less than the wild type.

Sequences of proteins named here, by UniProt entry; tags and fusion partners are left off.
UniProt P22366: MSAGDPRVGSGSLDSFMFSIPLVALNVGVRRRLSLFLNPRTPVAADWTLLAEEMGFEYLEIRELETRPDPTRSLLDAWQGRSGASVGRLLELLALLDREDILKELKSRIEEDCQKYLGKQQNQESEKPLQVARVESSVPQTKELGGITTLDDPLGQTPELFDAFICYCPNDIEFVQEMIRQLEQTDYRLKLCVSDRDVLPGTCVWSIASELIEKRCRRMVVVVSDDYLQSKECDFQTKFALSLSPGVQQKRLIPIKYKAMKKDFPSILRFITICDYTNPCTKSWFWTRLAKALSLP

T1: IL-33 receptor (ST2, suppression of tumorigenicity 2) (mouse (endogenous in mTh2 cells)) (UniProt P14719)
T1 sequence: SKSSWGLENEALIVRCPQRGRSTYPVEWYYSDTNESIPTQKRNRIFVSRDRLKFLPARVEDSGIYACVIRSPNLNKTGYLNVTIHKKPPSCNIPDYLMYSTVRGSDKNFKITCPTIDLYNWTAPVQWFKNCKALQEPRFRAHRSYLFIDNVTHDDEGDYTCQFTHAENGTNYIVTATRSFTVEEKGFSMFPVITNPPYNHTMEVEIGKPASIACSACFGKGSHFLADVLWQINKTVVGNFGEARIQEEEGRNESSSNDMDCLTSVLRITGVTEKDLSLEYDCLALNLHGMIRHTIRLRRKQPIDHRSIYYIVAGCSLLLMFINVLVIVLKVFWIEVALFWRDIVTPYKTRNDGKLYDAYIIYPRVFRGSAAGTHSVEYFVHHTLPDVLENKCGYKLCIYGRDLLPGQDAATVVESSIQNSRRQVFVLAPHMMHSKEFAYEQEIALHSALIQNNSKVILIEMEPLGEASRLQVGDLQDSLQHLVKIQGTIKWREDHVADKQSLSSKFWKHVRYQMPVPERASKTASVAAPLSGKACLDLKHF

B1: Tumor necrosis factor receptor (TNF)-associated factor 4 (TRAF4) (protein, UniProt Q61382 1-470)
chain: MPGFDYKFLEKPKRRLLCPLCGKPMREPVQVSTCGHRFCDTCLQEFLSEGVFKCPEDQLPLDYAKIYPDPELEVQVLGLAIRCIHSEEGCRWSGPLRHLQGHLNTCSFNVVPCPNRCPAKLSRRDLPAHLQHDCPKRRLKCEFCGCDFSGEAYESHEGVCPQESVYCENKCGARMMRRLLAQHATSECPKRTQPCAYCTKEFVYDTIQSHQYQCPRLPVPCPNQCGVGTVAREDLPTHLKDSCSTAFVLCPFKESGCKHRCPKLAMGRHVEESVKPHLAMMCALVSRQRQELQELRRELEELSIGSDGVLIWKIGSYGRRLQEAKAKPNLECFSPAFYTHKYGYKLQVSAFLNGNGSGEGTHLSIYIRVLPGAFDNLLEWPFARRVTFSLLDQSDPGLAKPQHVTETFHPDPNWKNFQKPGTWRGSLDESSLGFGYPKFISHQDIRKRNYVRDDAVFIRASVELPRKILS

Target: T1, IL-33 receptor (ST2, suppression of tumorigenicity 2) (mouse (endogenous in mTh2 cells))
Test: co-IP

Molecule	binding
myeloid differentiation primary response protein 8 (MYD88) (from UniProt P22366 1-296)	binds
B1	binds
